{
  "source": "PubChem BioAssay AID445",
  "about": "(National Center for Advancing Translational Sciences (NCATS), 2006)",
  "note": "Some of the results follow. These are further read-outs of the screen, such as a control signal, another cell line or another target. No call is given for them. Most of these compounds were active or inconclusive in the main read-out, so they are no random draw. Words in brackets tell the shape of the fitted curve; partial curves, single points and poor fits give uncertain potencies.",
  "data": [
    {"assay": "IkB Signaling", "conditions": "ABC-DLBCL IkBa-CBG/CBR dual luciferase ratio (green luciferase fused to IkBa over red control in OCI-Ly3 lymphoma cells), 4 h; measured here: control luc red channel unless noted", "summary_of_the_method": "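Curves were fitted separately to fusion (green), unfused (red) and ratio luminescence, then classed by r2, magnitude and activity. Cells: OCI-Ly3, 4 h compound plus doxycycline at 37C; 10 uM MG-132 defined full response.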", "values": [
      {"compound": "Cc1cc(NC(=O)CCS(=O)(=O)c2nc(-c3ccccc3)cc(C(F)(F)F)n2)no1", "AC50": "3.98 µM [falling, full curve]"},
      {"compound": "O=C(Nc1cccc2ncccc12)c1cc2ccccc2o1", "AC50": "31.6 µM [falling, partial curve]"},
      {"compound": "c1ccc(Nc2nc(-c3ccncc3)cs2)nc1", "AC50": "10 µM [falling, partial curve]"},
      {"compound": "CCOC(=O)C1CCCN(c2c(C(=O)c3ccc(OCC)cc3)cnc3ccccc23)C1", "note": "(stereo not drawn)", "AC50": "15.8 µM [falling, partial curve]"},
      {"compound": "O=S(=O)(c1cccc2nsnc12)N1CCN(c2ncccn2)CC1", "AC50": "3.16 µM [rising, full curve, poor fit]"},
      {"compound": "COc1ccc(NC(=O)c2cc3c(=O)n(Cc4cccs4)ccc3nc2C)cc1", "AC50": "20 µM [falling, partial curve]"},
      {"compound": "Cc1ccc(NC(=O)c2c(NC(=O)c3ccc(F)cc3)sc3c2CCCC3)cc1C", "AC50": "0.501 µM [falling, full curve]"},
      {"compound": "CCNc1nc(C)c2cc(Br)c(=O)n(CC)c2n1", "AC50": "2.51 µM [rising, full curve]"},
      {"compound": "CCOC(=O)c1c(C)oc2nc(C)nc(N3CCN(c4cc(Cl)ccc4C)CC3)c12", "AC50": "5.01 µM [falling, partial curve]"},
      {"compound": "CCOC(=O)c1cc(OC(=O)c2cc(OC)c(OC)c(OC)c2)n(-c2ccccc2)n1", "AC50": "39.8 µM [falling, single point]"},
      {"compound": "O=C(Cn1nc(-c2ccccc2)c2c(c1=O)CCCC2)Nc1ccc(F)c(Cl)c1", "AC50": "7.94 µM [falling, partial curve]"},
      {"compound": "Cc1ccccc1NS(=O)(=O)c1ccc2[nH]cc(C(=O)NC3CCCCC3)c(=O)c2c1", "AC50": "20 µM [falling, single point]"},
      {"compound": "CCn1c(=O)c2cc(C(=O)NC3CCC(C)CC3)sc2c2ccccc21", "note": "(stereo not drawn)", "AC50": "3.98 µM [falling, partial curve]"},
      {"compound": "COc1ccccc1C(=O)Nc1ccc(C(=O)O)cc1", "AC50": "1.58 µM [falling, full curve]"},
      {"compound": "Cc1cc(=O)[nH]c(SCC(=O)N2CCN(C(c3ccccc3)c3ccccc3)CC2)n1", "AC50": "39.8 µM [falling, partial curve]"},
      {"compound": "O=S1(=O)c2cccc3cccc(c23)N1Cc1ccc(-c2nnco2)cc1", "AC50": "15.8 µM [falling, partial curve]"},
      {"compound": "COc1ccccc1CNC(=O)CCCn1c(=O)c2ccccc2n(Cc2ccc(F)cc2)c1=O", "AC50": "0.316 µM [falling, full curve, poor fit]"},
      {"compound": "COc1ccccc1Nc1nc(-c2ccc(F)cc2)c2c(n1)-c1ccccc1OC2", "AC50": "10 µM [falling, partial curve]"},
      {"compound": "COc1ccccc1NC(=O)c1c(C)cc(C)nc1SCC(=O)Nc1ccc(C)c(C)c1", "AC50": "1.26 µM [falling, partial curve]"},
      {"compound": "O=C(Nc1cccc(-c2nc3cccnc3s2)c1)c1ccco1", "AC50": "10 µM [falling, partial curve]"},
      {"compound": "COc1ccc(C)cc1NC(=O)Cn1c(=O)oc2cc(S(=O)(=O)N3CCCCC3)ccc21", "AC50": "0.126 µM [falling, single point]"},
      {"compound": "Cc1ccc(Nc2ccc3cc(S(=O)(=O)N4CCCCC4)ccc3n2)cc1F", "AC50": "39.8 µM [falling, single point]"},
      {"compound": "Cc1nn(-c2ccccc2)c2sc(C(=O)N(Cc3ccco3)C(C)C(=O)NC(C)(C)C)cc12", "note": "(stereo not drawn)", "AC50": "20 µM [falling, partial curve]"},
      {"compound": "CCn1cc2nc(SCC(=O)Nc3ccc(OC)c(Cl)c3)n(Cc3ccc(OC)cc3)c(=O)c2n1", "AC50": "25.1 µM [falling, partial curve]"},
      {"compound": "COc1ccc(-c2cc3nc(C)c(CCC(=O)NCc4ccccc4Cl)c(C)n3n2)c(OC)c1", "AC50": "0.501 µM [falling, full curve]"},
      {"compound": "CC(=O)c1ccc(NC(=O)c2cn(-c3ccccc3)nc2-c2ccc(Br)cc2)cc1", "AC50": "15.8 µM [falling, partial curve]"},
      {"compound": "O=C(CCC1CCCC1)N1CCc2c([nH]c3ccccc23)C1c1ccc(F)cc1", "note": "(stereo not drawn)", "AC50": "12.6 µM [falling, partial curve]"},
      {"compound": "CCOc1ccc(NC(=O)NCCN2CCN(c3cccc(C)c3C)CC2)cc1", "AC50": "0.1 µM [falling, partial curve]"},
      {"compound": "CCc1cccc(C)c1NC(=O)C1CCN(S(=O)(=O)c2c(C)noc2/C=C/c2c(C)cc(C)cc2C)CC1", "AC50": "0.316 µM [falling, full curve]"},
      {"compound": "N#Cc1nc(COc2ccccc2Cl)oc1NCCc1ccccc1", "AC50": "39.8 µM [falling, single point]"},
      {"compound": "Cc1ccc(C)c(-n2c(N)c(C#N)c3nc4ccccc4nc32)c1", "AC50": "12.6 µM [falling, partial curve]"},
      {"compound": "COc1cccc(CNc2cc(C)nc3nc(-c4ccc(C)cc4)nn23)c1", "AC50": "15.8 µM [falling, partial curve]"},
      {"compound": "COc1ccc(C2c3c(n(C)c4ccccc34)C(=O)N2CC(=O)Nc2cccc(F)c2)cc1", "note": "(stereo not drawn)", "AC50": "15.8 µM [falling, partial curve]"},
      {"compound": "Cc1ccc(N2CC(C)Cn3c2nc2c3c(=O)n(Cc3cccc(Cl)c3)c(=O)n2C)cc1", "note": "(stereo not drawn)", "AC50": "39.8 µM [falling, single point]"},
      {"compound": "COc1ccc(NC(=O)c2oc3ccc(S(=O)(=O)N4CCOCC4)cc3c2C)cc1", "AC50": "12.6 µM [falling, single point]"},
      {"compound": "CCCc1cc(=O)[nH]c2nnc(SCC)n12", "AC50": "31.6 µM [falling, single point]"},
      {"compound": "COc1cc(C2Nc3c(C)cc(C)cc3-c3cc(C)nn32)cc(OC)c1O", "note": "(stereo not drawn)", "AC50": "25.1 µM [falling, single point]"},
      {"compound": "CCCS(=O)(=O)NCCc1sc2nc(-c3ccc(F)cc3)nn2c1C", "AC50": "25.1 µM [falling, partial curve, poor fit]"},
      {"compound": "Cc1cc(C)n(-c2nnc(Nc3ccc(C)c(Cl)c3)c3ccccc23)n1", "AC50": "25.1 µM [falling, partial curve]"},
      {"compound": "COc1ccc(C2=NC(C)(C)N(CC(=O)Nc3cccc(C)c3)C2=O)cc1", "AC50": "12.6 µM [falling, partial curve]"},
      {"compound": "COc1ccc(Cn2c(C(=O)O)c(CNCCc3cc(OC)ccc3OC)c3ccc(C)cc32)cc1", "AC50": "25.1 µM [falling, partial curve, poor fit]"},
      {"compound": "CN(C)C(=O)c1c(NC(=O)c2ccccc2F)sc2c1CCCC2", "AC50": "39.8 µM [falling, single point]"},
      {"compound": "CCCC(=O)Nc1cccc(NC(=O)c2ccc3c(c2)OCCO3)c1", "AC50": "3.98 µM [falling, partial curve]"},
      {"compound": "Cc1ccc(S(=O)(=O)Nc2nc3n(n2)C(c2ccc(F)cc2)C=C(c2ccccc2)N3)cc1", "note": "(stereo not drawn)", "AC50": "39.8 µM [falling, single point]"},
      {"compound": "CC1=C(C(=O)Nc2ccc(Cl)cc2)C(CC(C)C)n2nc(SCc3ccccc3C)nc2N1", "note": "(stereo not drawn)", "AC50": "15.8 µM [falling, partial curve, poor fit]"},
      {"compound": "CCCCOc1cccc(C(=O)N(Cc2ccc(C)o2)c2ccccn2)c1", "AC50": "12.6 µM [falling, partial curve]"},
      {"compound": "CCOc1ccc(CCNC(=O)c2cnc3sc(N4CCCC4)nn3c2=O)cc1", "AC50": "20 µM [falling, partial curve]"},
      {"compound": "CCOC(=O)Cn1c(=O)oc2cc(S(=O)(=O)NCC3CCCO3)ccc21", "note": "(stereo not drawn)", "AC50": "10 µM [falling, partial curve]"},
      {"compound": "CCOC(=O)Cc1csc(NC(=O)c2cccs2)n1", "AC50": "12.6 µM [falling, partial curve]"},
      {"compound": "Cc1onc(-c2c(F)cccc2Cl)c1C(=O)OCn1nnc2ccccc2c1=O", "AC50": "0.316 µM [falling, full curve]"},
      {"compound": "COc1ccc(NS(=O)(=O)c2ccc3[nH]c4c(c3c2)CCCC4)cc1OC", "AC50": "20 µM [falling, single point]"},
      {"compound": "Cc1cc(N)c(NC2=CC(=O)CC(C)(C)C2)cc1C", "AC50": "20 µM [falling, partial curve]"},
      {"compound": "CCn1c(CN2CCCCC2)nc2cc(NC(=O)c3cc(OC)c(OC)c(OC)c3)ccc21", "AC50": "31.6 µM [falling, partial curve]"},
      {"compound": "COc1ccc(Nc2c3c(nc4ccc(NC(=O)c5ccc(F)cc5)cc24)CCCC3)cc1OC", "AC50": "15.8 µM [falling, partial curve]"},
      {"compound": "Cc1ccc(Cl)cc1N1CCN(CCCNC(=O)c2ccc3nc(N4CCCCC4)sc3c2)CC1", "AC50": "12.6 µM [falling, partial curve]"},
      {"compound": "O=C(CSc1cccc2cccnc12)N1CCCC1", "AC50": "3.98 µM [rising, full curve] [measured here: IkB-luc green channel]"},
      {"compound": "O=C(NC1(C(F)(F)F)NC(=O)N(CCc2ccccc2)C1=O)c1ccc(Cl)cc1", "note": "(stereo not drawn)", "AC50": "15.8 µM [falling, partial curve]"},
      {"compound": "Oc1c(C(c2ccccc2)N2CCC(O)CC2)sc2nc(-c3ccco3)nn12", "note": "(stereo not drawn)", "AC50": "3.16 µM [rising, full curve]"},
      {"compound": "CCOc1ccccc1CNc1nc2nc(C)cc(C)n2n1", "AC50": "1.26 µM [falling, single point]"},
      {"compound": "O=C(NCCCN1CCN(c2ccccc2)CC1)c1ccc2nc(Cc3ccccc3)oc2c1", "AC50": "10 µM [falling, partial curve, poor fit]"},
      {"compound": "Cc1ccc(Cn2c(C(C)NC(=O)c3ccccc3)nc3ccccc32)cc1", "note": "(stereo not drawn)", "AC50": "20 µM [falling, single point]"},
      {"compound": "COc1cc(C(c2sc3nc(C)nn3c2O)N2CCN(c3ccccc3)CC2)cc(OC)c1OC", "note": "(stereo not drawn)", "AC50": "10 µM [falling, partial curve]"},
      {"compound": "Cc1noc(C)c1S(=O)(=O)N1CCC(C(=O)N2CCN(c3cccc(C(F)(F)F)c3)CC2)CC1", "AC50": "25.1 µM [falling, partial curve]"}
    ]}
  ]
}
